{"source": "patent US7160733B2", "about": "“Ligand specific to β2-glycoprotein I and use thereof” (priority 2001, dated 2007)", "data": [{"test": "TBARS (thiobarbituric acid reactive substance) amount of lipid", "values": [{"molecule": "CC(C)CCC[C@@H](C)[C@H]1CC[C@H]2[C@@H]3C(=O)C=C4C[C@@H](OC(=O)CCCCCCCC(=O)O)CC[C@]4(C)[C@H]3CC[C@]12C", "note": "[oxLig-1, 9-oxo-9-(7-ketocholest-5-en-3β-yloxy)nonanoic acid]", "TBARS of solid-phase lipid": "oxLig-1 (0.66) nmol (malondialdehyde equivalent)/mg (lipid)"}, {"molecule": "CCCCC/C=C\\C/C=C\\C/C=C\\C/C=C\\CCCC(=O)O[C@H](COC(=O)CCCCCCCCCCCCCCC)COP(=O)([O-])OCC[N+](C)(C)C", "note": "[PAPC, 1-Palmitoyl-2-arachidonoyl-phosphatidylcholine, reference compound]", "TBARS of solid-phase lipid": "PAPC (107.8) nmol (malondialdehyde equivalent)/mg (lipid)"}, {"molecule": "Cardiolipin [CL, reference compound]", "TBARS of solid-phase lipid": "CL (4.46) nmol (malondialdehyde equivalent)/mg (lipid)"}]}]}
